Experimental data from PMC4666357.
Results are given in words; binding and its absence hold for the method and conditions named. For part of these data: Binding seen in cells or lysates may run through a third protein. Some binding calls cover weakened binding; strength is not graded here. Where a sequence is shown, tags or fusion partners need not be part of it. Each block holds one binder with its values, some of them ahead of it.

Key:
[1] = biological target: T1, recombinant FLAG–CARF (TF–CARF–FLAG) (human), Q9NXV6; test: pull-down; isolated recombinant TF–CARF–FLAG and TF–XRN2–TEV–HA mixed, pulled down with anti-FLAG conjugated agarose resin; both purified; conditions: remark: other sources report otherwise
T1 chain: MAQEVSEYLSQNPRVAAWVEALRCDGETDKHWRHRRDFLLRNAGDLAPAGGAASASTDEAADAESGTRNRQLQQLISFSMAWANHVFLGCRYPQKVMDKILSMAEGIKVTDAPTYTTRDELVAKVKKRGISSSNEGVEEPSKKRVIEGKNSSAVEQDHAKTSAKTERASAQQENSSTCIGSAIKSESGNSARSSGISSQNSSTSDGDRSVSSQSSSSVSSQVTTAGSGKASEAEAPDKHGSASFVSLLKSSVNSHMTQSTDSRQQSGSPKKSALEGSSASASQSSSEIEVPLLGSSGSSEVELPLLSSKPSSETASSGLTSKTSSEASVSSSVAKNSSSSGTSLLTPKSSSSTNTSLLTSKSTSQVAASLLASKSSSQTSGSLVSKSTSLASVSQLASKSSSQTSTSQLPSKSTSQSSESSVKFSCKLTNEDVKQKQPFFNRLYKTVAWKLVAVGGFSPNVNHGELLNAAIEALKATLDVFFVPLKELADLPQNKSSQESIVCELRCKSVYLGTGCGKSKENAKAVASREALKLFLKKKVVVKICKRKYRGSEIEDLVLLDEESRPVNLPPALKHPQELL

[2] = biological target: T2, FLAG-tagged CARF (collaborator of alternative reading frame protein) (human) (UniProt Q9NXV6); test: co-IP; anti-FLAG immunoprecipitation from TOCARF cells transfected with HA–XRN2 mutants or empty vector, with or without doxycycline (10 ng/ml, 72 h); immunoblot with anti-HA
T2 sequence: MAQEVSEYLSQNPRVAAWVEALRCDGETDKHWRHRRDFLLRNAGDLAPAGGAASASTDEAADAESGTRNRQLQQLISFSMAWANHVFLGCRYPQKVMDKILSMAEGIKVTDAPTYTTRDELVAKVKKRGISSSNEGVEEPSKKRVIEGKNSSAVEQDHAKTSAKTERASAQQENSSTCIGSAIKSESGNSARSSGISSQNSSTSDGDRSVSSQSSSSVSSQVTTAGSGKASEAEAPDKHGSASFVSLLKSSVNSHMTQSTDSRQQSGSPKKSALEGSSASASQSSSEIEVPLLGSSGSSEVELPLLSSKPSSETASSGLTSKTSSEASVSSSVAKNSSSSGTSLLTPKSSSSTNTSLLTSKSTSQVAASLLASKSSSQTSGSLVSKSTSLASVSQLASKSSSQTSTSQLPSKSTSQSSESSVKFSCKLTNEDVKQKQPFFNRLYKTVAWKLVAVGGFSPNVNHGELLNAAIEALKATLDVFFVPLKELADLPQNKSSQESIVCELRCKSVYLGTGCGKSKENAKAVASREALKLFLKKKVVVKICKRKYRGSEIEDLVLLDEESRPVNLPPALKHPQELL

[3] = biological target: T3, HA-tagged XRN2 (human), Q9H0D6; test: co-IP; HA–XRN2 as bait: TOCARF cells with or without 100 ng/ml doxycycline, transfected with HA–XRN2; anti-HA and protein G–Sepharose, 4 h at 4°C, washed in buffer A; immunoblot; conditions: remark: other sources report otherwise
T3 chain: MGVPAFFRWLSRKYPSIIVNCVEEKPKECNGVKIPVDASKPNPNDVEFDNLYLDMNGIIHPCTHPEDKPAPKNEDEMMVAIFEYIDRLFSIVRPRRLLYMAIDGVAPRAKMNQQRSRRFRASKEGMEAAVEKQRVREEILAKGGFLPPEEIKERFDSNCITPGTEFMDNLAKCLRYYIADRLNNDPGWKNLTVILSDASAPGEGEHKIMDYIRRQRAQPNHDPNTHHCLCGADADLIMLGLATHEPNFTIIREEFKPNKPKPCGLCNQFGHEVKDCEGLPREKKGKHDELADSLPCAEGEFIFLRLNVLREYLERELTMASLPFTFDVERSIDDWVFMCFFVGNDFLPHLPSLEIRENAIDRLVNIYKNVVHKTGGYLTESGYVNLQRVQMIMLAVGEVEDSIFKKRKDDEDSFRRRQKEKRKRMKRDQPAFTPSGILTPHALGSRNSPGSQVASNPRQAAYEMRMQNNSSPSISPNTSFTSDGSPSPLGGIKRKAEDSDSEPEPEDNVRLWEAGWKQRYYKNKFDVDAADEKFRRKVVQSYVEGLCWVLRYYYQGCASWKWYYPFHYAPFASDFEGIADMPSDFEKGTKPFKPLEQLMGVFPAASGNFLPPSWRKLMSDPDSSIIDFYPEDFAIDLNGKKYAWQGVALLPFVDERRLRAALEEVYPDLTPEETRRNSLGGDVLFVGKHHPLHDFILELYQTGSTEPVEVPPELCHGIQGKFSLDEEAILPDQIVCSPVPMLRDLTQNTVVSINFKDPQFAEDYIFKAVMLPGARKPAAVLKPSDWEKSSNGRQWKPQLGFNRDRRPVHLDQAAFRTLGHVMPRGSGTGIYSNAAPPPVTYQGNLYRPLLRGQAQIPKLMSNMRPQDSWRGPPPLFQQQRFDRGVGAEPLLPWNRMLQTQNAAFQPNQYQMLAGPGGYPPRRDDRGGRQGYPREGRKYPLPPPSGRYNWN

binding [1]: binds
B1: recombinant HA–XRN2 (TF–XRN2–TEV–HA), Q9H0D6-1 1-950 (enzyme)
chain: MGVPAFFRWLSRKYPSIIVNCVEEKPKECNGVKIPVDASKPNPNDVEFDNLYLDMNGIIHPCTHPEDKPAPKNEDEMMVAIFEYIDRLFSIVRPRRLLYMAIDGVAPRAKMNQQRSRRFRASKEGMEAAVEKQRVREEILAKGGFLPPEEIKERFDSNCITPGTEFMDNLAKCLRYYIADRLNNDPGWKNLTVILSDASAPGEGEHKIMDYIRRQRAQPNHDPNTHHCLCGADADLIMLGLATHEPNFTIIREEFKPNKPKPCGLCNQFGHEVKDCEGLPREKKGKHDELADSLPCAEGEFIFLRLNVLREYLERELTMASLPFTFDVERSIDDWVFMCFFVGNDFLPHLPSLEIRENAIDRLVNIYKNVVHKTGGYLTESGYVNLQRVQMIMLAVGEVEDSIFKKRKDDEDSFRRRQKEKRKRMKRDQPAFTPSGILTPHALGSRNSPGSQVASNPRQAAYEMRMQNNSSPSISPNTSFTSDGSPSPLGGIKRKAEDSDSEPEPEDNVRLWEAGWKQRYYKNKFDVDAADEKFRRKVVQSYVEGLCWVLRYYYQGCASWKWYYPFHYAPFASDFEGIADMPSDFEKGTKPFKPLEQLMGVFPAASGNFLPPSWRKLMSDPDSSIIDFYPEDFAIDLNGKKYAWQGVALLPFVDERRLRAALEEVYPDLTPEETRRNSLGGDVLFVGKHHPLHDFILELYQTGSTEPVEVPPELCHGIQGKFSLDEEAILPDQIVCSPVPMLRDLTQNTVVSINFKDPQFAEDYIFKAVMLPGARKPAAVLKPSDWEKSSNGRQWKPQLGFNRDRRPVHLDQAAFRTLGHVMPRGSGTGIYSNAAPPPVTYQGNLYRPLLRGQAQIPKLMSNMRPQDSWRGPPPLFQQQRFDRGVGAEPLLPWNRMLQTQNAAFQPNQYQMLAGPGGYPPRRDDRGGRQGYPREGRKYPLPPPSGRYNWN

binding [2]: binds
B2: HA-tagged truncated XRN2 mutant xN1 (domain or fragment, UniProt Q9H0D6-1 1-680)
chain: MGVPAFFRWLSRKYPSIIVNCVEEKPKECNGVKIPVDASKPNPNDVEFDNLYLDMNGIIHPCTHPEDKPAPKNEDEMMVAIFEYIDRLFSIVRPRRLLYMAIDGVAPRAKMNQQRSRRFRASKEGMEAAVEKQRVREEILAKGGFLPPEEIKERFDSNCITPGTEFMDNLAKCLRYYIADRLNNDPGWKNLTVILSDASAPGEGEHKIMDYIRRQRAQPNHDPNTHHCLCGADADLIMLGLATHEPNFTIIREEFKPNKPKPCGLCNQFGHEVKDCEGLPREKKGKHDELADSLPCAEGEFIFLRLNVLREYLERELTMASLPFTFDVERSIDDWVFMCFFVGNDFLPHLPSLEIRENAIDRLVNIYKNVVHKTGGYLTESGYVNLQRVQMIMLAVGEVEDSIFKKRKDDEDSFRRRQKEKRKRMKRDQPAFTPSGILTPHALGSRNSPGSQVASNPRQAAYEMRMQNNSSPSISPNTSFTSDGSPSPLGGIKRKAEDSDSEPEPEDNVRLWEAGWKQRYYKNKFDVDAADEKFRRKVVQSYVEGLCWVLRYYYQGCASWKWYYPFHYAPFASDFEGIADMPSDFEKGTKPFKPLEQLMGVFPAASGNFLPPSWRKLMSDPDSSIIDFYPEDFAIDLNGKKYAWQGVALLPFVDERRLRAALEEVYPDLTPEETRRNSLG

binding [3]: binds
B3: FLAG-tagged CARF (collaborator of alternative reading frame protein), Q9NXV6 1-580 (protein)
chain: MAQEVSEYLSQNPRVAAWVEALRCDGETDKHWRHRRDFLLRNAGDLAPAGGAASASTDEAADAESGTRNRQLQQLISFSMAWANHVFLGCRYPQKVMDKILSMAEGIKVTDAPTYTTRDELVAKVKKRGISSSNEGVEEPSKKRVIEGKNSSAVEQDHAKTSAKTERASAQQENSSTCIGSAIKSESGNSARSSGISSQNSSTSDGDRSVSSQSSSSVSSQVTTAGSGKASEAEAPDKHGSASFVSLLKSSVNSHMTQSTDSRQQSGSPKKSALEGSSASASQSSSEIEVPLLGSSGSSEVELPLLSSKPSSETASSGLTSKTSSEASVSSSVAKNSSSSGTSLLTPKSSSSTNTSLLTSKSTSQVAASLLASKSSSQTSGSLVSKSTSLASVSQLASKSSSQTSTSQLPSKSTSQSSESSVKFSCKLTNEDVKQKQPFFNRLYKTVAWKLVAVGGFSPNVNHGELLNAAIEALKATLDVFFVPLKELADLPQNKSSQESIVCELRCKSVYLGTGCGKSKENAKAVASREALKLFLKKKVVVKICKRKYRGSEIEDLVLLDEESRPVNLPPALKHPQELL
